Data from publication PMC5460281.
Results are given in words; binding and its absence hold for the method and conditions named. In cells and extracts the contact can be indirect. Some entries that bind do so weakly or less than the wild type.

Chains of the proteins cited; added tags and fusions are not shown.
UniProt P35222: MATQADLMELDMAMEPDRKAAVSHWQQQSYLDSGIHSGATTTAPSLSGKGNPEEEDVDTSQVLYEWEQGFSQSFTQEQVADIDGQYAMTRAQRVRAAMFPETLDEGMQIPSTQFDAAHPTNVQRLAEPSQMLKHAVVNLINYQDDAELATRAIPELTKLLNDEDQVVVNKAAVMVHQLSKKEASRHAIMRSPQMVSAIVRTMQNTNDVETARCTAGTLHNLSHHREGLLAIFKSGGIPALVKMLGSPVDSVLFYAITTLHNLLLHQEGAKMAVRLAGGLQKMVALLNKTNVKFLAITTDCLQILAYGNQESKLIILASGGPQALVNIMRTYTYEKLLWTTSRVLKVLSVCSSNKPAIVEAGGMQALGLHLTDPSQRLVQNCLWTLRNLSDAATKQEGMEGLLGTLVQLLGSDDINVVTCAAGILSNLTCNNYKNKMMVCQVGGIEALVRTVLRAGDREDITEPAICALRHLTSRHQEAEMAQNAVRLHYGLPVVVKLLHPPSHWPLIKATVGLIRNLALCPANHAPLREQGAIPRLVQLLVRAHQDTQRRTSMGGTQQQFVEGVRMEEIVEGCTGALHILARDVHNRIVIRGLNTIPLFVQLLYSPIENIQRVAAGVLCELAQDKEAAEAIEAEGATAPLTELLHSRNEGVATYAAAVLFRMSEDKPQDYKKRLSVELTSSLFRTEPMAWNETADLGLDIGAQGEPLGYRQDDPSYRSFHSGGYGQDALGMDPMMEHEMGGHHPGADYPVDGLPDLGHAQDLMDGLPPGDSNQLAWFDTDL

Biological target: T1, Protocadherin 18 (human (endogenous in NCM460)) (UniProt Q9HCL0)
T1 sequence: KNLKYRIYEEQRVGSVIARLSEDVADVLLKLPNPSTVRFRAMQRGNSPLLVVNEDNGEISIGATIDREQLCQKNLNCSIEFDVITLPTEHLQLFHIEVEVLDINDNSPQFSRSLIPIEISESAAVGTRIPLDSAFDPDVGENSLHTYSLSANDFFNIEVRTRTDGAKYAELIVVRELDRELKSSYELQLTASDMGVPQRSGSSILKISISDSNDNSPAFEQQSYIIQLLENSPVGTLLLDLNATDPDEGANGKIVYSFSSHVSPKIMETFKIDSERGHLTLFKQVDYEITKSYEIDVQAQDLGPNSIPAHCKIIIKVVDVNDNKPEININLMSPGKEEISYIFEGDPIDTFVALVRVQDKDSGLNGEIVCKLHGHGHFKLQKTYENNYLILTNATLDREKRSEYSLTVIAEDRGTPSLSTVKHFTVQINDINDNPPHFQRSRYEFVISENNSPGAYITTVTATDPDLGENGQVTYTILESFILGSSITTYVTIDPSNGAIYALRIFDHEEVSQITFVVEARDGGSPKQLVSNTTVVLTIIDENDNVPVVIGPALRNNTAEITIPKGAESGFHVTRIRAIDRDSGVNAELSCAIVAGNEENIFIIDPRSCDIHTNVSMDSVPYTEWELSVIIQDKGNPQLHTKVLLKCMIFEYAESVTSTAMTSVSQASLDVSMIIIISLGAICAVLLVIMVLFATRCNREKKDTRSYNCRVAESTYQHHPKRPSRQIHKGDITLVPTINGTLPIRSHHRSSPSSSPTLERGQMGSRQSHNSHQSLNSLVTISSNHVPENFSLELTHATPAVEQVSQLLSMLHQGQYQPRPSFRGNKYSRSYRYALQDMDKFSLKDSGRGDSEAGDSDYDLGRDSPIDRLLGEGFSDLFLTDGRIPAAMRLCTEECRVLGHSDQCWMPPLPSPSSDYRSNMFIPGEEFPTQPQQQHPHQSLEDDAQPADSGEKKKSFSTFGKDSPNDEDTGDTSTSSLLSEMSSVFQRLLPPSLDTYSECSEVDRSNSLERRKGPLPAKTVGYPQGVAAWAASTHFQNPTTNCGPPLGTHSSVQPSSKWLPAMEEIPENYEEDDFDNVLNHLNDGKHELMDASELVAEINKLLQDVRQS
Test: co-IP; anti-PCDH18 (2 μg) with RIPA lysates (1.0–1.5 mg protein/ml) of NCM460 cells transfected with siNC or siPCDH18, 4 °C overnight; protein G Agarose 1 h at 4 °C; immunoblot for β-catenin and PCDH18

binding: binds weakly
Substance: β-catenin (from UniProt P35222 1-781)
